The record followed here is the supplement of paper PMC9135407.

Where “and” joins values, the source holds several entries; their conditions need not be identical. Equal values may be shown once. Where a name gives a salt, the structure may show the parent alone. ± gives the standard deviation of the averaged measurements. Some of the results follow. Plates or batches differ in their baseline, so values are only roughly comparable.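 Culture-activated primary human stellate myofibroblasts, where regained lipid droplets signal inactivation. Value: share of Hoechst-counted cells above a per-plate Bodipy cutoff, in duplicate wells, with DMSO negative and nortriptyline positive controls on each plate. Hits: a control-normalized score above the plate's top-tenth-percentile nortriptyline wells, or one of a plate's three best wells. Final well concentrations are not given.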

For this experiment, the system named is primary human hepatic stellate cells (donor 1). The experiment in a line: percent Bodipy-positive cells; higher = more lipid droplet accumulation. The following applies: 48 h.
Where [1] appears, read: library stock concentration: 10 mM.
The mark [2] stands for this setting: library stock concentration: 3.33 mM.
The mark [3] stands for this setting: library stock concentration: 1 mM.
Where [4] appears, read: library stock concentration: 80 uM.
The mark [5] stands for this setting: library stock concentration: 400 uM.
Setting [6] is: library stock concentration: 2 mM.

With `CSCC[C@H](NC(=O)[C@H](Cc1c[nH]c2ccccc12)NC(=O)CCNC(=O)OC(C)(C)C)C(=O)N[C@@H](CC(=O)O)C(=O)N[C@@H](Cc1ccccc1)C(N)=O`, the “percent Bodipy-positive cells” value under setting [1] came out at 30.6 ± 2.3%.
As to `Cc1ccc(Sc2cncc3sc(C(N)=O)cc23)cc1`, the “percent Bodipy-positive cells” value under setting [2] was 34.1 ± 9.5%.
`CNCCCN1c2ccccc2CCc2ccccc21.Cl` [Desipramine hydrochloride]: under setting [1], the “percent Bodipy-positive cells” value is 98.73 ± 0.44%.
In the case of `CCCCC[C@@H](O)/C=C/[C@H]1[C@H](C/C=C\CCCC(=O)O)[C@H](O)C[C@@H]1O` [ent-Prostaglandin F2.alpha.], the “percent Bodipy-positive cells” value under setting [3] worked out at 8.03 ± 3.8%.
As to `Cc1cnc(NC(=O)Nc2cc(Br)c(C)cc2OC[C@@H]2CNCCO2)cn1`, the “percent Bodipy-positive cells” value runs as follows: under setting [4], 10.7 ± 6.7%; under setting [5], 12.8 ± 1.6%; under setting [6], 30.7 ± 3.3%; under setting [2], 64.7 ± 2.1%; under setting [1], 98.8% and 84.6%.
Turning to `N[C@H](C(=O)O)c1ccc(C(=O)O)c(O)c1` [(S)-4-Carboxy-3-hydroxyphenylglycine], the “percent Bodipy-positive cells” value under setting [1] was found to be 7.87 ± 1.7%.
As for `CCCCCCCCCCCC#CC#CC#CC#CC(=O)O` [Eicosatetraynoic Acid], the “percent Bodipy-positive cells” value under setting [3] is 8.82 ± 1.4%.
Turning to `COc1cc2ncnc(Nc3ccc(Cl)cc3Cl)c2cc1OC` [Ste11 MAPKKK Activation Inhibitor], the “percent Bodipy-positive cells” value under setting [2] worked out at 6.71 ± 2%.
For `CC(CNC(=O)c1cccnc1)NC(=O)c1cccnc1` (configuration not stated) [Nicaraven], the “percent Bodipy-positive cells” value amounted to 10.6 ± 4.7% under setting [2] and 23.8 ± 14% under setting [1].
Consider `CC(C)SC(=N)N` [S-Isopropylisothiourea hydrobromide], for which, under setting [1], the “percent Bodipy-positive cells” value is 7.77 ± 0.29%.
For `CC(C)SC(=N)N` [S-isopropyl Isothiourea (hydrobromide)], the “percent Bodipy-positive cells” value under setting [3] was found to be 10.9 ± 6.8%.
Take `O=C(Nc1ccccc1)N1CCN(c2nc(-c3ccccc3)ns2)CC1`: the “percent Bodipy-positive cells” value under setting [2] came out at 7.13 ± 2.3% and the “percent Bodipy-positive cells” value under setting [1] worked out at 28 ± 1%.
With `CCc1ccc(OCc2ccccc2C(=O)Nc2ccc3nc(C)cc(N)c3c2)cc1`, under setting [2], the “percent Bodipy-positive cells” value came out at 90.1 ± 14%.
As to `CN(C)CCc1c[nH]c2ccc(CS(=O)(=O)N3CCCC3)cc12` [Almotriptan], the “percent Bodipy-positive cells” value under setting [1] turned out to be 31.8 ± 1.7%.
In the case of `CN(C)CCc1c[nH]c2ccc(CS(=O)(=O)N3CCCC3)cc12` [Almotriptan Malate], the “percent Bodipy-positive cells” value runs as follows: under setting [2], 13.3 ± 3.9%; under setting [1], 13.5 ± 7.3%.
Turning to `Cn1nc(C(C)(C)C)cc1C(=O)N[C@@H](Cc1cccc(Cl)c1)C(=O)NCC#N` [Cathepsin Inhibitor 1], the “percent Bodipy-positive cells” value is, setting by setting: under setting [2], 9.95 ± 3.3%; under setting [1], 17.1 ± 3.9%.
As to `CC1(COc2ccc(CC3SC(=O)NC3=O)cc2)CCCCC1` (configuration not stated) [Ciglitazone], the “percent Bodipy-positive cells” value was 6.48% and 20.6% under setting [3]; 7.05 ± 1.9% under setting [1].
Turning to `CN(c1ncccc1CNc1nc(Nc2ccc3c(c2)CC(=O)N3)ncc1C(F)(F)F)S(C)(=O)=O`, the “percent Bodipy-positive cells” value was 8.95 ± 4% under setting [4]; 14.5% and 21% under setting [5].
For `CN1CCN2c3ccccc3Cc3ccccc3C2C1` (configuration not stated) [Mianserin hydrochloride], the “percent Bodipy-positive cells” value is 40 ± 9.8% (library stock concentration: 6.6 mM) and 33.9 ± 5.8% under setting [1].
As for `CN1CCN2c3ccccc3Cc3ccccc3C2C1` (configuration not stated) [Mianserin hcl], for the setting “library stock concentration: 7.6 mM”, the “percent Bodipy-positive cells” value was found to be 30.5 ± 3.4%.
With `CN1CCN2c3ccccc3Cc3ccccc3C2C1` (configuration not stated) [Mianserine hydrochloride], the “percent Bodipy-positive cells” value was found to be 70.7 ± 12%.
`CN1CCN2c3ccccc3Cc3ccccc3C2C1` (configuration not stated) [Mianserin HCl]: the “percent Bodipy-positive cells” value is, setting by setting: under setting [2], 26.9 ± 1.3%; under setting [1], 44 ± 3.2%.
For `CN1CCCN(C(=O)c2cccc(-c3ccc(/C=C4/C(=O)Nc5ccc(Cl)cc54)o3)c2)CC1`, the “percent Bodipy-positive cells” value is 99.4 ± 0.85% under setting [2] and 96.6 ± 1.6% under setting [1].
Regarding `CCCCCCCCOc1ccccc1C(=O)Nc1ccc(C(=O)OCC[N+](C)(CC)CC)cc1` [Otilonium Bromide], the “percent Bodipy-positive cells” value is, setting by setting: under setting [2], 9.5 ± 3.1%; under setting [1], 48.7 ± 39%.
As for `N[C@@H](Cc1ccc(O)c(O)c1)C(=O)O` [Levodopa], the “percent Bodipy-positive cells” value was found to be 26.7 ± 7.6%. Further, under setting [1], the “percent Bodipy-positive cells” value amounted to 38.8 ± 0.56%.
Consider `N[C@@H](Cc1ccc(O)c(O)c1)C(=O)O` [L-3,4-Dihydroxyphenylalanine], for which, under setting [1], the “percent Bodipy-positive cells” value was found to be 36 ± 0.81%.
In the case of `CCCCc1ncc(/C=C(\Cc2cccs2)C(=O)O)n1Cc1ccc(C(=O)O)cc1` [Eprosartan mesylate], the “percent Bodipy-positive cells” value under setting [1] amounted to 29.2 ± 13%.
Turning to `CCCCc1ncc(/C=C(\Cc2cccs2)C(=O)O)n1Cc1ccc(C(=O)O)cc1` [Eprosartan], the “percent Bodipy-positive cells” value (library stock concentration: 4.7 mM) is 10.43 ± 0.057%.
For the compound `CCCCc1ncc(/C=C(\Cc2cccs2)C(=O)O)n1Cc1ccc(C(=O)O)cc1` [Eprosartan Mesylate], the “percent Bodipy-positive cells” value is, setting by setting: under setting [2], 7.97 ± 0.56%; under setting [1], 35.6 ± 2.6%.
As to `O=C(O)CCC(=O)c1ccc(-c2ccccc2)cc1` [Fenbufen], the “percent Bodipy-positive cells” value is 20.9 ± 1.2%. In addition, for the setting “library stock concentration: 7.9 mM”, the “percent Bodipy-positive cells” value is 8.62% and 16.9%. Also, the “percent Bodipy-positive cells” value under setting [1] was 18.5 ± 7.5%.
Turning to `CCS(=O)(=O)N(C)[C@H]1c2cc(C#N)ccc2OC(C)(C)[C@@H]1O` (racemic) [Chromanol 293B], the “percent Bodipy-positive cells” value under setting [1] was found to be 7.03 ± 1.9%.
Same read-out and setting: to `CCN1CCCC1CNC(=O)c1cc(S(N)(=O)=O)ccc1OC` (single isomer, unassigned; (-)) [(-)-Sulpiride] belongs 11 ± 3.4%.
With `O=C1Nc2ccc(Cl)cc2/C1=C/c1cc(Cl)c(O)c(Cl)c1`, the “percent Bodipy-positive cells” value under setting [4] came out at 12.3 ± 4.4%, the “percent Bodipy-positive cells” value under setting [5] stood at 12.1 ± 1.3%, the “percent Bodipy-positive cells” value under setting [6] stood at 7.47 ± 0.2% and the “percent Bodipy-positive cells” value under setting [1] stood at 9.23 ± 0.53%.
Take `O=C1Nc2ccc(Cl)cc2/C1=C/c1cc(Cl)c(O)c(Cl)c1` [PKR Inhibitor, Negative Control]: the “percent Bodipy-positive cells” value under setting [2] stood at 9.32 ± 1.4%.
Consider `O=C1c2c(O)ccc(O)c2C(=O)c2c(NCCNCCO)ccc(NCCNCCO)c21` [Mitoxantrone 2HCl], for which the “percent Bodipy-positive cells” value (library stock concentration: 4.5 mM) was 83.3 ± 24%.
As for `O=C1c2c(O)ccc(O)c2C(=O)c2c(NCCNCCO)ccc(NCCNCCO)c21`, under setting [1], the “percent Bodipy-positive cells” value turned out to be 100%.
Still for that read-out and setting: to `O=C1c2c(O)ccc(O)c2C(=O)c2c(NCCNCCO)ccc(NCCNCCO)c21` [Mitoxanthrone hydrochloride] belongs 61.2 ± 12%.
As for `O=C1c2c(O)ccc(O)c2C(=O)c2c(NCCNCCO)ccc(NCCNCCO)c21` [Mitoxantrone], the “percent Bodipy-positive cells” value under setting [2] came to 100%.
On to `O=C1c2c(O)ccc(O)c2C(=O)c2c(NCCNCCO)ccc(NCCNCCO)c21` [Mitoxantrone HCl], for which the “percent Bodipy-positive cells” value came out at 100% under setting [2] and 91.7 ± 12% under setting [1].
For the compound `O=C1c2c(O)ccc(O)c2C(=O)c2c(NCCNCCO)ccc(NCCNCCO)c21` [Mitoxantrone dihydrochloride], the “percent Bodipy-positive cells” value is 97.5 ± 3.5%.
